Among the data in patent US20140079643A1 are binding values, retold here.

Sequences of proteins named here, by UniProt entry; tags and fusion partners are left off. Residues count along the entry.
UniProt P24394, residues 26-232: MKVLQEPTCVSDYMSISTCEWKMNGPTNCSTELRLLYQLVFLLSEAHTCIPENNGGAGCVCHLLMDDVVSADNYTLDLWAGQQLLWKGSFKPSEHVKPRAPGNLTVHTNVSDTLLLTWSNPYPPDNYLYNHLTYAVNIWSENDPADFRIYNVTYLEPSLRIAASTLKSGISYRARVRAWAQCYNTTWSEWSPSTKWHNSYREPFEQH

The target of test [1] is ectodomain of the human IL-4 receptor (IL-4Ra) (human) (UniProt P24394). Description: SPR, Biacore 2000, IL-4Ra ectodomain coated on CM5 chip, analyte in flow.
Test [2] shares this target. The experiment in a line: SPR, binding constant shown in FIG. 3. In general terms: Surface plasmon resonance follows binding to a sensor surface in real time, without labels.

These are yes or no findings as the source states them, for the method shown. Some entries that bind do so weakly or less than the wild type.

Take KRLDRN [AP-1 peptide]: the binding entry in test [1] and in test [2] was “binds” each time.
